The values that follow come from paper PMC12714281.

Sequences of proteins named here, by UniProt entry; tags and fusion partners are left off. A change or cut given only in a name is not applied to a line headed by its entry.
UniProt P21796: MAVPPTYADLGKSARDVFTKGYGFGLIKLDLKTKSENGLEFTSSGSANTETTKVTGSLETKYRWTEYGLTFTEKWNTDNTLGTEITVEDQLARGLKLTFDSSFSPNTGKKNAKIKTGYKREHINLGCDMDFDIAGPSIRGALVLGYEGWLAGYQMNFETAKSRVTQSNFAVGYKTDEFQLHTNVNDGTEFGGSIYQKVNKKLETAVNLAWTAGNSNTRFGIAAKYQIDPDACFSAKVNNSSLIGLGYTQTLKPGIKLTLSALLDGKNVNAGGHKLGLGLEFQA
UniProt Q9Z2L0: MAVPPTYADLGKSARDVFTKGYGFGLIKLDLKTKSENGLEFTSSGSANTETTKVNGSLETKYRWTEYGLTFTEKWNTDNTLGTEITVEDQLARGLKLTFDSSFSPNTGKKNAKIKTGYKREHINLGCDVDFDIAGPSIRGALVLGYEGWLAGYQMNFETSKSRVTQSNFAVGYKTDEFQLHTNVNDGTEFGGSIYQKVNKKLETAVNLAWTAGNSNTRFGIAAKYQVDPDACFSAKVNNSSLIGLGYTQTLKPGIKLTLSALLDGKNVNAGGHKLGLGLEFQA

The target in assay [1] is T1, HA-TMEM43, co-transfected in 293T cells (UniProt Q9BTV4).
T1 sequence: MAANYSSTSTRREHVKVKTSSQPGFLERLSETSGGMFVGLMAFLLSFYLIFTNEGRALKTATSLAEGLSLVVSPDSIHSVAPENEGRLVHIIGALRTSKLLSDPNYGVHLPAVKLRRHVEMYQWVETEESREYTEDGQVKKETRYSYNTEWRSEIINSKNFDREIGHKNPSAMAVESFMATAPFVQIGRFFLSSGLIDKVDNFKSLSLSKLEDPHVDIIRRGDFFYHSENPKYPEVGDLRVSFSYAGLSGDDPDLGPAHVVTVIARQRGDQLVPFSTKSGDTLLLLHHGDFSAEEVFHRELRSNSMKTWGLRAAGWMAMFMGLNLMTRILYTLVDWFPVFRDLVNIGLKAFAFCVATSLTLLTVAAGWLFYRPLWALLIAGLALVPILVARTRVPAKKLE
Nature of the assay: co-IP; 293T cells co-transfected with Flag-VDAC1/2 full-length or domains and HA-TMEM43; IP of the lysates with HA antibody.

In assay [2] the target is T2, HA-Flag-TMEM43 S358L mutant, stably expressed in H9c2 cells (UniProt Q9BTV4).
T2 sequence: T1 sequence with S358L
Nature of the assay: co-IP; H9c2 cells with vector, HA-Flag-TMEM43 WT or S358L; lysates of same protein amounts on anti-FLAG M2 Affinity Gel; immunoblotting of VDAC1, VDAC2 and Flag. In general terms: In western blotting, separated proteins are transferred to a membrane and probed.

Assay [3] deals with T3, HA-Flag-TMEM43 wild type, stably expressed in H9c2 cells (UniProt Q9BTV4).
T3 sequence: T1 sequence
The assay is described as above.

Changes are numbered by the printed parent chain. Results are given in words; binding and its absence hold for the method and conditions named. Binding seen in cells or lysates may run through a third protein. Some results given as binding are weak or reduced against the parent protein; the word gives no strength. Where a sequence is shown, tags or fusion partners need not be part of it.

For “Flag-VDAC1 Aa50–200 (from UniProt P21796 50-200) (domain or fragment)”, the binding entry in assay [1] is given as “binds”.
As to “Flag-VDAC1 full-length (FL) (from UniProt P21796 1-283)”, the binding entry in assay [1] is recorded as “binds”.
For the molecule “VDAC1, endogenous in H9c2 cells (from UniProt Q9Z2L0 1-283)”, the binding result in assay [2] and in assay [3] was “binds” throughout.

B1: VDAC2, endogenous in H9c2 cells (protein, UniProt P81155 1-295)
chain: MAECCVPVCQRPICIPPPYADLGKAARDIFNKGFGFGLVKLDVKTKSCSGVEFSTSGSSNTDTGKVSGTLETKYKWCEYGLTFTEKWNTDNTLGTEIAIEDQICQGLKLTFDTTFSPNTGKKSGKIKSAYKRECINLGCDVDFDFAGPAIHGSAVFGYEGWLAGYQMTFDSAKSKLTRSNFAVGYRTGDFQLHTNVNNGTEFGGSIYQKVCEDFDTSVNLAWTSGTNCTRFGIAAKYQLDPTASISAKVNNSSLIGVGYTQTLRPGVKLTLSALVDGKSFNAGGHKLGLALELEA
Turning to B1, the binding result in assay [2] and in assay [3] was “binds” in each case.
